The chains behind the UniProt entries cited, without tags or fusion partners. Where a name states a change or a piece, a line headed by the entry shows the natural chain unless it says otherwise.
UniProt Q57WL3: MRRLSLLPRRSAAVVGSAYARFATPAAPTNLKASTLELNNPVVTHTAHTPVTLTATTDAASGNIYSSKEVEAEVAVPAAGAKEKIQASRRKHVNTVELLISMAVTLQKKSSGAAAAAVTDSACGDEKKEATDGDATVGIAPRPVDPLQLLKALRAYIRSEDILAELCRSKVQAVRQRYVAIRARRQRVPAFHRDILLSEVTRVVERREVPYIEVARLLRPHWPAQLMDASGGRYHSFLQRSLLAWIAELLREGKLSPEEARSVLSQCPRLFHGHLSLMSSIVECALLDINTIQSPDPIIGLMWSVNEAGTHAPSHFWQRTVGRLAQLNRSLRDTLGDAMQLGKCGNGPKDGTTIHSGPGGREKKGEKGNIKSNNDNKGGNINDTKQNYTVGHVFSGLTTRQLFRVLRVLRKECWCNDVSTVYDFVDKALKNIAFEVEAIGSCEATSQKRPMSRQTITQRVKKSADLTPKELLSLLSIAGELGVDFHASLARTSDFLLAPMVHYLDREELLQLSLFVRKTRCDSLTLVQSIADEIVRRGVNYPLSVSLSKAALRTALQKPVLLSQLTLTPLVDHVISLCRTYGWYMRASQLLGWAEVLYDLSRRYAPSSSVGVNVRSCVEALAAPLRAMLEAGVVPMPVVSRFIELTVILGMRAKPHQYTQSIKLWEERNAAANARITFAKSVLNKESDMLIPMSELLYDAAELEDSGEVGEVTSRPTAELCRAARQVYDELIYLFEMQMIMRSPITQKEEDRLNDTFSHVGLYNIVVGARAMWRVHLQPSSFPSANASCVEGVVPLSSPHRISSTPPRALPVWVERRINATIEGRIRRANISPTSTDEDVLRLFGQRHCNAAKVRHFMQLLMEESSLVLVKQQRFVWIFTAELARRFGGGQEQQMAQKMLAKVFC
UniProt Q584T3: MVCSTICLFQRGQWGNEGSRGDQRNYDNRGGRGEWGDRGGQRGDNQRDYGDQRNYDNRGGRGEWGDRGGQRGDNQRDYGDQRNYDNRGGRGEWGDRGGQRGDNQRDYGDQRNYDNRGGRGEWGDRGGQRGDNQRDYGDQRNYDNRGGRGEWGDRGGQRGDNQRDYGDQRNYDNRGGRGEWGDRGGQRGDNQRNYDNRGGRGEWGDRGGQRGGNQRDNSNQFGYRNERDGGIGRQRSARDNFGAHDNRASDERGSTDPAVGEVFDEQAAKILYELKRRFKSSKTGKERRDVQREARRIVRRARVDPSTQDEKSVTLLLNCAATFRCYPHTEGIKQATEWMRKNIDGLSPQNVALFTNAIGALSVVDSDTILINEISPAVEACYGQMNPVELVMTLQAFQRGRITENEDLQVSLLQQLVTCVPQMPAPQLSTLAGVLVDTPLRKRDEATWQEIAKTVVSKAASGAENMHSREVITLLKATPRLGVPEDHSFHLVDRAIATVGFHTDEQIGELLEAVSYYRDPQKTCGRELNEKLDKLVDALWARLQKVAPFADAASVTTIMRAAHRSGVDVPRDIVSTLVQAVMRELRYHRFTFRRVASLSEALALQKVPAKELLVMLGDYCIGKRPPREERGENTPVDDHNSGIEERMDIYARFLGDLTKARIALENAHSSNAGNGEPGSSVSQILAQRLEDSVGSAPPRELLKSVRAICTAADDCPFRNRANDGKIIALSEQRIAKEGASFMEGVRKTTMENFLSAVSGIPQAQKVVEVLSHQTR
UniProt Q586X1: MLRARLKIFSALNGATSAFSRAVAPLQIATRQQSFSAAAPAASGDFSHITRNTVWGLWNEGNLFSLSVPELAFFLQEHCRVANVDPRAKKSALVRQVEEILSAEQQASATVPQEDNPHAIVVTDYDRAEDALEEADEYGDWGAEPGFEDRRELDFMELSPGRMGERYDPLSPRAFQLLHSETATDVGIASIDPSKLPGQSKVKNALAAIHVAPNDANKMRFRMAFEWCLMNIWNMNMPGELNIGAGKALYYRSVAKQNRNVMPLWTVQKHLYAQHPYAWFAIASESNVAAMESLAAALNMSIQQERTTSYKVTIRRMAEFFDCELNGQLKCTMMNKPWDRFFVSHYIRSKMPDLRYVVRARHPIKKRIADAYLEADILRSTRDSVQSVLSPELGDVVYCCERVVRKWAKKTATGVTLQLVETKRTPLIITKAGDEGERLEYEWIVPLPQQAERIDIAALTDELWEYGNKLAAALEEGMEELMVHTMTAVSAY
UniProt Q389P7: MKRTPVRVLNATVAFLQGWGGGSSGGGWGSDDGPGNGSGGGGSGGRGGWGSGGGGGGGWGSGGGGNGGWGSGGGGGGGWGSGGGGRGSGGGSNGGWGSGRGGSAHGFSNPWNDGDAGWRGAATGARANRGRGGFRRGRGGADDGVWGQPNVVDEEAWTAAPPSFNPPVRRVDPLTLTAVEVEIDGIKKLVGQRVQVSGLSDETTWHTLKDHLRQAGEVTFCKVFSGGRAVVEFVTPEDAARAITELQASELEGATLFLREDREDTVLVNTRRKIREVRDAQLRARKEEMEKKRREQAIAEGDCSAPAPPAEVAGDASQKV
UniProt P90629: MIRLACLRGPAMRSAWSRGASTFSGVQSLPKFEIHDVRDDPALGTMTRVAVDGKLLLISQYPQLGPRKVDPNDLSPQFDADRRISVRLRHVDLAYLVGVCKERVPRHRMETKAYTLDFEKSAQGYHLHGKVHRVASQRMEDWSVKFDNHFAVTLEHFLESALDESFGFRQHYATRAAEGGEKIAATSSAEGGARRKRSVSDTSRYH

In PMC5285507:

Assays:
[1] = target: MRB8170 tagged with modified TAP tag (mTAP) (T. brucei) (UniProt Q57WL3); assay: co-IP; rapid tandem affinity purification: RNase I-digested supernatants of T. brucei with mTAP-tagged MRB8170 or MRB4160 mixed with IgG-coated magnetic Dynabeads; eluates probed by Western blot with specific antibodies; mock purification of the parental cell line as control
[2] = target: MRB4160 tagged with modified TAP tag (mTAP) (T. brucei) (UniProt Q57Y20); assay: as above

binding [1]	binding [2]	Substance
binds	binds	TbRGG1 (from UniProt Q584T3)
binds	binds	gRNA-associated protein 1 (GAP1) (from UniProt Q586X1)
binds	binds	T. brucei RGG2 (TbRGG2) (from UniProt Q389P7)
binds	binds	mtRNA-binding protein 1 (MRP1) (from UniProt P90629)

Results are given in words; binding and its absence hold for the method and conditions named. In cells and extracts the contact can be indirect. Binding can be weak; no strength is given.
